Common to all, as to assay type: in vivo, Streptococcus pneumoniae
The test system of one data set is CipR45 and CipR57. The experiment in a line: PK/PD parameters against CipR45 and CipR57 (bounds given in text). Conditions: upper bound over CipR45 and CipR57; highest dose tested.
The test system of a further data set is Strain CipR45. The experiment in a line: PK/PD parameters against strain CipR45. Conditions: over 24 h; for fT>MIC: free drug, 40 mg/kg (SCN) or 50 mg/kg (LVX).
Another data set relates to Strain CipR57. The experiment in a line: PK/PD parameters against strain CipR57. Conditions: over 24 h; for fT>MIC: free drug, 40 mg/kg (SCN) or 50 mg/kg (LVX); for fAUC/MIC: free fraction from protein binding 40% (SCN), 12% (LVX), 40 or 50 mg/kg.

Turning to `C[C@H]1COc2c(N3CCN(C)CC3)c(F)cc3c(=O)c(C(=O)O)cn1c23` [Levofloxacin, levofloxacin], the fAUC/MIC with CipR45 and CipR57 was not above 15.2 h; in the data set on Strain CipR45 (free fraction from protein binding 40% (SCN), 12% (LVX), 40 or 50 mg/kg) it was 15.2 ± 1.3 h; with Strain CipR57 it was 1.9 ± 0.16 h. The entries for the “fT>MIC” value in the data set on Strain CipR45 and with Strain CipR57 were 24.2 ± 2.8% and 0.0%, respectively.
As for `CNCCc1cc2c(c3c1ccc1cc4c(cc13)OCO4)OCO2` [Seconeolitsine, seconeolitsine], in the data set on Strain CipR45, the “fT>MIC” value was 0.0%. Also, in the data set with Strain CipR57, the “fT>MIC” value is reported as 0.0% and the fAUC/MIC was 2.3 ± 0.0 h.

Values taken from publication PMC8152265, “Seconeolitsine, the Novel Inhibitor of DNA Topoisomerase I, Protects against Invasive Pneumococcal Disease Caused by Fluoroquinolone-Resistant Strains” (Antibiotics, 2021).
